# The supplement of paper PMC10735217
# Where “and” joins values, the source holds several entries; their conditions need not be identical. Identical values can stand only once. Counter-ions that a name gives are not always drawn. The list shows a part of the results. Repeats in this data set agree poorly, so a single value says little.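 The human kidney-derived cells carry a stably integrated construct of eight TEAD-binding elements driving luciferase, read by luminescence in a drug-repurposing library screen. A compound counts as a hit when its signal is more than five robust Z scores above the plate mean.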
# Tested on: HEK293A TEAD-LUC reporter
# Assay: TEAD-luciferase reporter activity (YAP activation), robust Z score vs plate; higher = stronger YAP/TEAD activation
# Conditions: 24 h
SMILES,TEAD-luciferase reporter activity (compound concentration: 200 nM),TEAD-luciferase reporter activity (compound concentration: 2 uM),TEAD-luciferase reporter activity (compound concentration: 10 uM)
FC(F)(F)c1ccc(N2CCNCC2)nc1Cl,inactive: -0.587,inactive: -1.96,inactive: -0.0173
O=C1CN=C(c2ccccc2)c2cc([N+](=O)[O-])ccc2N1,inactive: 0.56,–,inactive: 0.15
O=C(C1CCCN1C(=O)NC1CCCC1)N1CCC(N2Cc3ccccc3C2=O)CC1 (stereo unspecified),inactive: -0.354,–,inactive: -0.487
CCCN1CCC[C@@H]2Cc3n[nH]cc3C[C@H]21 [Quinpirole hydrochloride],inactive: -0.587,inactive: -0.457,inactive: -1.17
CC1Oc2ccccc2CC1N(C)C (stereo unspecified) [trebenzomine],inactive: -0.0529,inactive: -0.997,inactive: -1.15
CC(C(=O)c1ccc(N)cc1)N1CCCCCC1 (stereo unspecified),inactive: -0.282,inactive: -0.704,inactive: -2.39
NC(=O)OCCCc1ccccc1,inactive: -2.11,inactive: -0.224,inactive: 1.32
C[C@@H](NC(=O)[C@H](Cc1ccccc1)NC(=O)[C@@H](C)NC(=O)[C@@H](N)Cc1ccc(O)cc1)C(=O)N[C@@H](Cc1ccc(O)cc1)C(N)=O [Casokefamide],inactive: -0.414,inactive: -0.385,inactive: 0.0515
C=C(c1ccc(OC(C)(C)COC(=O)CCC(=O)O)cc1)C1COC2(OO1)C1CC3CC(C1)CC2C3 (stereo unspecified),inactive: -1.82,inactive: -1.16,inactive: 1.78
CNC(=O)Oc1ccc2c(c1)[C@]1(C)CCN(C)[C@@H]1N2C [physostigmine],inactive: -1.05,inactive: 0.282,inactive: 1.64
CCc1ccccc1NC(=O)Oc1ccc2c(c1)C1(C)CCN(C)OC1N2C (stereo unspecified),inactive: 1.81,inactive: -1.83,inactive: 1.21
CCC(=O)OC[C@@H](C(=O)O[C@@H]1C[C@@H]2[C@H]3O[C@H]3[C@H](C1)N2C)c1ccccc1,inactive: -1.29,inactive: -0.933,inactive: 0.467
O=C(Oc1ccc(Br)cc1)N1CCN2CCC1C2 (stereo unspecified),inactive: -0.675,inactive: 4.11,inactive: 0.905
CC(=O)Nc1ccc(OC[C@](C)(O)C(=O)Nc2ccc([N+](=O)[O-])c(C(F)(F)F)c2)cc1 [Andarine],inactive: -0.766,inactive: -1.44,inactive: 2.7
COc1ccccc1C(=O)N1CCCC1C(=O)N1CCC(N2CCCC2=O)CC1 (stereo unspecified),inactive: -2.3,–,inactive: 0.663
CCN1C(=O)OC(C)(C)C1=O,inactive: -1.04,inactive: -1.69,inactive: 1.51
CCC1(CC)C(=O)C=CNC1=O,inactive: -0.327,inactive: -1.11,inactive: 1.47
CCN(CC)CCN1C(=O)[C@@](O)(c2ccccc2Cl)c2c1cc(C(N)=O)cc2C(F)(F)F,inactive: 1.17,inactive: -1.55,inactive: 0.451
C[C@]12CC[C@H](O)CC1=CC[C@@H]1[C@@H]2CC[C@]2(C)C(=O)CC[C@@H]12 [Prasterone],–,inactive: 0.19,–
C[C@]12CC[C@H](O)CC1=CC[C@@H]1[C@@H]2CC[C@]2(C)C(=O)CC[C@@H]12,inactive: 1.71,–,inactive: -0.409

SMILES,TEAD-luciferase reporter activity (compound concentration: 200 nM),TEAD-luciferase reporter activity (compound concentration: 2 uM),TEAD-luciferase reporter activity (compound concentration: 10 uM)
CCCN1CCCC2c3cccc(O)c3OCC21 (stereo unspecified),inactive: -0.0476,inactive: -0.481,inactive: -1.86
COC[C@H]1OC(=O)c2coc3c2[C@@]1(C)C1=C(C3=O)[C@@H]2CCC(=O)[C@@]2(C)C[C@H]1OC(C)=O [Wortmannin],inactive: 0.445,inactive: -2.08,inactive: 0.687
C=CCN1CCC2(C)c3cc(O)ccc3CC1C2C (stereo unspecified),inactive: -0.0748,inactive: -0.125,inactive: 0.127
Cc1cc(N(CCOS(C)(=O)=O)CCOS(C)(=O)=O)ccc1C=O,inactive: 0.683,inactive: -1.06,inactive: 0.713
O=C(N[C@H]1CN2CCC1CC2)c1cc2cccc(Cl)c2s1 [encenicline hydrochloride],inactive: -1.12,inactive: -1.11,inactive: -0.128
CCCN(CCC)C1CCc2cccc(CS(=O)(=O)NC)c2C1 (stereo unspecified),inactive: -0.941,inactive: -0.519,inactive: -0.452
CCCCCCC(C)(C)c1cc(O)c2c(c1)OC(C)(C)[C@H]1CC=C(CO)C[C@H]21 [Dexanabinol],inactive: -1.04,–,inactive: 0.0203
CC[C@@H](C(N)=O)N1CCCC1=O [Levetiracetam],–,inactive: -0.858,–
CC[C@@H](C(N)=O)N1CCCC1=O,inactive: -0.142,–,inactive: 0.64
CC1(C)[C@H](C=C(Cl)Cl)[C@H]1C(=O)OCc1c(F)c(F)cc(F)c1F,inactive: -0.981,inactive: 0.194,inactive: 2.5
CC12CCC3C4CCCC=C4CCC3C1CCC2O (stereo unspecified),inactive: -0.443,inactive: -0.712,inactive: -0.537
Clc1ccc(N2CCN(Cc3c[nH]c4ncccc34)CC2)cc1,inactive: -1.53,inactive: -1.18,inactive: 1.11
"Oc1ccc2c3c1OC1C(O)CCC4(O)C(C2)N(CC2CCC2)CCC314 (stereo unspecified) [nalbuphine, IS Pharma]",inactive: 0.46,inactive: 0.704,inactive: 4.2
CC(C)NCCc1ccccc1,inactive: 3.77,inactive: 3.2,inactive: 0.656
c1ccc2c(c1)Cc1sc(Cc3c[nH]cn3)nc1-2,inactive: -0.273,inactive: -0.131,inactive: 0.316
O=C(C1CCCN1C(=O)c1ccccc1Cl)N1CCC(N2Cc3ccccc3C2=O)CC1 (stereo unspecified),inactive: -0.51,–,inactive: 0.101
Cc1ccc(-n2nccn2)c(C(=O)N2CCN(c3nc4cc(Cl)ccc4o3)CC[C@H]2C)c1 [Suvorexant],inactive: -1.9,inactive: 0.766,inactive: 2.9
CC(C)Cn1c(=O)cc(C(=O)O[C@@H]2C[C@H]3CC[C@@H](C2)N3C)c2ccccc21,inactive: -1.29,inactive: 0.917,inactive: 0.131
O=C1CC[C@H]2[C@H]3Cc4cccc(O)c4[C@@]2(CCN3CC2CC2)C1,inactive: 0.203,inactive: -0.646,inactive: -0.831
COc1cc(C)nc(O)c1CNC(=O)c1c(C)n([C@H](C)C2CCN(CC(F)(F)F)CC2)c2ccccc12,inactive: -0.603,inactive: 1.17,inactive: 3.54

SMILES,TEAD-luciferase reporter activity (compound concentration: 200 nM),TEAD-luciferase reporter activity (compound concentration: 2 uM),TEAD-luciferase reporter activity (compound concentration: 10 uM)
C[C@]12CC[C@H](OS(=O)(=O)[O-])CC1=CC[C@@H]1[C@@H]2CC[C@]2(C)C(=O)CC[C@@H]12,inactive: -0.944,–,inactive: -1.85
C[C@]12CC[C@H](OS(=O)(=O)[O-])CC1=CC[C@@H]1[C@@H]2CC[C@]2(C)C(=O)CC[C@@H]12 [Prasterone sulfate],–,inactive: 2.74,–
C[N+](C)(C)CCCCCCCCCC[N+](C)(C)C,inactive: -1.43,inactive: -0.559,inactive: -0.555
CCC1(C)CC(=O)NC(=O)C1,inactive: -1.65,inactive: -0.403,inactive: -1.23
CCC1(c2cccc(O)c2)CCCCN(C)C1 (stereo unspecified) [meptazinol],inactive: 0.893,inactive: -1.04,inactive: 0.0138
O=C(N[C@H]1N=C(c2ccccc2F)c2cccc3c2N(CC3)C1=O)c1cc2ccccc2[nH]1,inactive: 0.746 and inactive: -0.645,inactive: 2.22 and inactive: 1.86,–
COc1ccccc1CN[C@H]1C2CCN(CC2)[C@H]1C(c1ccccc1)c1ccccc1,inactive: 0.942,inactive: 0.0809,inactive: 0.445
C=CCN1C[C@H](C(=O)N(CCCN(C)C)C(=O)NCC)C[C@@H]2c3cccc4[nH]cc(c34)C[C@H]21,inactive: -1.69,inactive: -0.512,inactive: 1.39
COc1cc2c(cc1OC)C(c1ccc(N)cc1)=NN=C(C)C2,inactive: 1.57,inactive: -0.0959,inactive: -0.4
C=CCN.C=CCNCCCCCCCCCC.C=CCNCCCCCC[N+](C)(C)C.ClCC1CO1 [colesevelam hydrochloride],inactive: -1.47,inactive: 0.985,inactive: 0.12
CCOC(=O)C1(c2ccccc2)CCN(CCc2ccc(N)cc2)CC1,inactive: 0.275,inactive: -2.05,inactive: 0.364
CC(C)C12O[C@H]1[C@@H]1O[C@@]13C1(C)CCC4=C(COC4=O)[C@]1(O)C[C@@H]1O[C@@]13[C@@H]2O (stereo partly drawn) [5(R)-Hydroxytriptolide],inactive: -2.85,inactive: -1.99,inactive: -2.77
O=C1C(O)N=C(c2ccccc2F)c2cc(Cl)ccc2N1CCO (stereo unspecified),inactive: -1.29,inactive: -0.583,inactive: -1.4
N=C1NC(=O)C(c2ccccc2)O1 (stereo unspecified) [Pemoline],inactive: 1.07,inactive: -1.16,inactive: -0.358
CN(C)C[C@@H]1CCCC[C@@]1(O)c1cccc(O)c1 [O-Desmethyltramadol],inactive: -0.35,inactive: -0.0784,inactive: 0.917
Nc1nc(N)nc(Nc2ccc([As]3SCC(CO)S3)cc2)n1 (stereo unspecified) [Melarsoprol],inactive: -1.44,inactive: 1.3,inactive: 4.13
COc1cccc([C@@]2(O)CCCC[C@@H]2CN(C)C)c1 [Tramadol],inactive: -0.353,–,inactive: -0.715
COc1cccc([C@@]2(O)CCCC[C@@H]2CN(C)C)c1 [Tramadol XL],–,inactive: -1.5,–
